Measured values as given in the supplement of paper PMC10849652.
This is one part of the list.

Amino acid sequences for entries named in this document (tags omitted). A change or cut given only in a name is not applied to a line headed by its entry.
UniProt Q92796: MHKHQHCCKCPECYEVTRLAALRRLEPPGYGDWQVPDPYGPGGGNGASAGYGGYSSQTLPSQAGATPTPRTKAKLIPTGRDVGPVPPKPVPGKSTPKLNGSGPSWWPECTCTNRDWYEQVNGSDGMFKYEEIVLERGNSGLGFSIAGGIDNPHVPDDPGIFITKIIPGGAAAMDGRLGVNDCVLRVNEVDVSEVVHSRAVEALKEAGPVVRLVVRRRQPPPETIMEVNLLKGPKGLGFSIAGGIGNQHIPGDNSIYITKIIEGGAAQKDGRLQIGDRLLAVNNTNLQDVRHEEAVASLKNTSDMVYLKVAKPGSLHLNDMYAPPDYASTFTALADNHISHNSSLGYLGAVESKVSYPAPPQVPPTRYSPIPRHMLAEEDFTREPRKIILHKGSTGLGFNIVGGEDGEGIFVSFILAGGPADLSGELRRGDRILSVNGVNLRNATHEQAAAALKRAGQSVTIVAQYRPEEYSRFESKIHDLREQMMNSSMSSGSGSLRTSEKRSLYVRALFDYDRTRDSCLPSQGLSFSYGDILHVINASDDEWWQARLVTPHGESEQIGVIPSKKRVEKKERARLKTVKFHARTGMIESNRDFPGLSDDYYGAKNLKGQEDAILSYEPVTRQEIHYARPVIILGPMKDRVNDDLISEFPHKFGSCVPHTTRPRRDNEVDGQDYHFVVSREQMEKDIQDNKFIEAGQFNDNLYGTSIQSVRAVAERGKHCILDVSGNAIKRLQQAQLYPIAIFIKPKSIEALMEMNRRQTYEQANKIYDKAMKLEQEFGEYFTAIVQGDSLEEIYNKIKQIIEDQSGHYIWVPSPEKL
UniProt O60610, whole entry, looked up: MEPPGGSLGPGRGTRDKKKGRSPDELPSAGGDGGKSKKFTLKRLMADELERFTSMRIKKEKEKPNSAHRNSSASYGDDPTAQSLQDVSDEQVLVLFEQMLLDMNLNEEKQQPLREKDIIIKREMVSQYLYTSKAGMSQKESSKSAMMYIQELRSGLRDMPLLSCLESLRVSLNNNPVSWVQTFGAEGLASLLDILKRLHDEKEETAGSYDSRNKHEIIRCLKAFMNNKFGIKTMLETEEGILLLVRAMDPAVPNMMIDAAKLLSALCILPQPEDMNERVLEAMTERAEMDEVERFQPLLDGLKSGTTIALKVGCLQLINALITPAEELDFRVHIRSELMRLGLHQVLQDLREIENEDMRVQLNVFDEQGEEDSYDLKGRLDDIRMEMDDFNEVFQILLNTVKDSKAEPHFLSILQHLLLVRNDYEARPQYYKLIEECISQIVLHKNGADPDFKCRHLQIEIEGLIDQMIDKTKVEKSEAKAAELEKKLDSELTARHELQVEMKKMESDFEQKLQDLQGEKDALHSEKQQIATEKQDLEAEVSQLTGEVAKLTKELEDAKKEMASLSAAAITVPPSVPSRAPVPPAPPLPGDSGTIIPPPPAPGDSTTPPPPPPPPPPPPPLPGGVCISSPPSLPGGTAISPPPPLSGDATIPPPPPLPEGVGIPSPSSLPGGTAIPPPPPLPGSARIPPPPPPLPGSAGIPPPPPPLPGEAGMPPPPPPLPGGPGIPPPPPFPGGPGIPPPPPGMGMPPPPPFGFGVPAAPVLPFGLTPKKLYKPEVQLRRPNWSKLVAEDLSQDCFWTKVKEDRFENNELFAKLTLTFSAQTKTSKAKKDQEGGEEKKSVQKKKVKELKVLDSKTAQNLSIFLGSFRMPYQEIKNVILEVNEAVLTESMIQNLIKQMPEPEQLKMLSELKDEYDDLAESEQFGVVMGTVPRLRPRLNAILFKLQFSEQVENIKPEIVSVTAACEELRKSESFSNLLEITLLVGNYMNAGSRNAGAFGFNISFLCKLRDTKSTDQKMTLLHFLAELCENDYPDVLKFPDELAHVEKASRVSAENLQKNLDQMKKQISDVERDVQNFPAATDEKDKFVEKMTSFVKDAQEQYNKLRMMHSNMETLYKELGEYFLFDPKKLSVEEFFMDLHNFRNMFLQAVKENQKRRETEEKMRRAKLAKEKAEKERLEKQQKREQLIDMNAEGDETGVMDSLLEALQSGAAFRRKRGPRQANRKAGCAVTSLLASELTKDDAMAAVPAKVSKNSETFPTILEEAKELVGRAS
UniProt Q9NYC9: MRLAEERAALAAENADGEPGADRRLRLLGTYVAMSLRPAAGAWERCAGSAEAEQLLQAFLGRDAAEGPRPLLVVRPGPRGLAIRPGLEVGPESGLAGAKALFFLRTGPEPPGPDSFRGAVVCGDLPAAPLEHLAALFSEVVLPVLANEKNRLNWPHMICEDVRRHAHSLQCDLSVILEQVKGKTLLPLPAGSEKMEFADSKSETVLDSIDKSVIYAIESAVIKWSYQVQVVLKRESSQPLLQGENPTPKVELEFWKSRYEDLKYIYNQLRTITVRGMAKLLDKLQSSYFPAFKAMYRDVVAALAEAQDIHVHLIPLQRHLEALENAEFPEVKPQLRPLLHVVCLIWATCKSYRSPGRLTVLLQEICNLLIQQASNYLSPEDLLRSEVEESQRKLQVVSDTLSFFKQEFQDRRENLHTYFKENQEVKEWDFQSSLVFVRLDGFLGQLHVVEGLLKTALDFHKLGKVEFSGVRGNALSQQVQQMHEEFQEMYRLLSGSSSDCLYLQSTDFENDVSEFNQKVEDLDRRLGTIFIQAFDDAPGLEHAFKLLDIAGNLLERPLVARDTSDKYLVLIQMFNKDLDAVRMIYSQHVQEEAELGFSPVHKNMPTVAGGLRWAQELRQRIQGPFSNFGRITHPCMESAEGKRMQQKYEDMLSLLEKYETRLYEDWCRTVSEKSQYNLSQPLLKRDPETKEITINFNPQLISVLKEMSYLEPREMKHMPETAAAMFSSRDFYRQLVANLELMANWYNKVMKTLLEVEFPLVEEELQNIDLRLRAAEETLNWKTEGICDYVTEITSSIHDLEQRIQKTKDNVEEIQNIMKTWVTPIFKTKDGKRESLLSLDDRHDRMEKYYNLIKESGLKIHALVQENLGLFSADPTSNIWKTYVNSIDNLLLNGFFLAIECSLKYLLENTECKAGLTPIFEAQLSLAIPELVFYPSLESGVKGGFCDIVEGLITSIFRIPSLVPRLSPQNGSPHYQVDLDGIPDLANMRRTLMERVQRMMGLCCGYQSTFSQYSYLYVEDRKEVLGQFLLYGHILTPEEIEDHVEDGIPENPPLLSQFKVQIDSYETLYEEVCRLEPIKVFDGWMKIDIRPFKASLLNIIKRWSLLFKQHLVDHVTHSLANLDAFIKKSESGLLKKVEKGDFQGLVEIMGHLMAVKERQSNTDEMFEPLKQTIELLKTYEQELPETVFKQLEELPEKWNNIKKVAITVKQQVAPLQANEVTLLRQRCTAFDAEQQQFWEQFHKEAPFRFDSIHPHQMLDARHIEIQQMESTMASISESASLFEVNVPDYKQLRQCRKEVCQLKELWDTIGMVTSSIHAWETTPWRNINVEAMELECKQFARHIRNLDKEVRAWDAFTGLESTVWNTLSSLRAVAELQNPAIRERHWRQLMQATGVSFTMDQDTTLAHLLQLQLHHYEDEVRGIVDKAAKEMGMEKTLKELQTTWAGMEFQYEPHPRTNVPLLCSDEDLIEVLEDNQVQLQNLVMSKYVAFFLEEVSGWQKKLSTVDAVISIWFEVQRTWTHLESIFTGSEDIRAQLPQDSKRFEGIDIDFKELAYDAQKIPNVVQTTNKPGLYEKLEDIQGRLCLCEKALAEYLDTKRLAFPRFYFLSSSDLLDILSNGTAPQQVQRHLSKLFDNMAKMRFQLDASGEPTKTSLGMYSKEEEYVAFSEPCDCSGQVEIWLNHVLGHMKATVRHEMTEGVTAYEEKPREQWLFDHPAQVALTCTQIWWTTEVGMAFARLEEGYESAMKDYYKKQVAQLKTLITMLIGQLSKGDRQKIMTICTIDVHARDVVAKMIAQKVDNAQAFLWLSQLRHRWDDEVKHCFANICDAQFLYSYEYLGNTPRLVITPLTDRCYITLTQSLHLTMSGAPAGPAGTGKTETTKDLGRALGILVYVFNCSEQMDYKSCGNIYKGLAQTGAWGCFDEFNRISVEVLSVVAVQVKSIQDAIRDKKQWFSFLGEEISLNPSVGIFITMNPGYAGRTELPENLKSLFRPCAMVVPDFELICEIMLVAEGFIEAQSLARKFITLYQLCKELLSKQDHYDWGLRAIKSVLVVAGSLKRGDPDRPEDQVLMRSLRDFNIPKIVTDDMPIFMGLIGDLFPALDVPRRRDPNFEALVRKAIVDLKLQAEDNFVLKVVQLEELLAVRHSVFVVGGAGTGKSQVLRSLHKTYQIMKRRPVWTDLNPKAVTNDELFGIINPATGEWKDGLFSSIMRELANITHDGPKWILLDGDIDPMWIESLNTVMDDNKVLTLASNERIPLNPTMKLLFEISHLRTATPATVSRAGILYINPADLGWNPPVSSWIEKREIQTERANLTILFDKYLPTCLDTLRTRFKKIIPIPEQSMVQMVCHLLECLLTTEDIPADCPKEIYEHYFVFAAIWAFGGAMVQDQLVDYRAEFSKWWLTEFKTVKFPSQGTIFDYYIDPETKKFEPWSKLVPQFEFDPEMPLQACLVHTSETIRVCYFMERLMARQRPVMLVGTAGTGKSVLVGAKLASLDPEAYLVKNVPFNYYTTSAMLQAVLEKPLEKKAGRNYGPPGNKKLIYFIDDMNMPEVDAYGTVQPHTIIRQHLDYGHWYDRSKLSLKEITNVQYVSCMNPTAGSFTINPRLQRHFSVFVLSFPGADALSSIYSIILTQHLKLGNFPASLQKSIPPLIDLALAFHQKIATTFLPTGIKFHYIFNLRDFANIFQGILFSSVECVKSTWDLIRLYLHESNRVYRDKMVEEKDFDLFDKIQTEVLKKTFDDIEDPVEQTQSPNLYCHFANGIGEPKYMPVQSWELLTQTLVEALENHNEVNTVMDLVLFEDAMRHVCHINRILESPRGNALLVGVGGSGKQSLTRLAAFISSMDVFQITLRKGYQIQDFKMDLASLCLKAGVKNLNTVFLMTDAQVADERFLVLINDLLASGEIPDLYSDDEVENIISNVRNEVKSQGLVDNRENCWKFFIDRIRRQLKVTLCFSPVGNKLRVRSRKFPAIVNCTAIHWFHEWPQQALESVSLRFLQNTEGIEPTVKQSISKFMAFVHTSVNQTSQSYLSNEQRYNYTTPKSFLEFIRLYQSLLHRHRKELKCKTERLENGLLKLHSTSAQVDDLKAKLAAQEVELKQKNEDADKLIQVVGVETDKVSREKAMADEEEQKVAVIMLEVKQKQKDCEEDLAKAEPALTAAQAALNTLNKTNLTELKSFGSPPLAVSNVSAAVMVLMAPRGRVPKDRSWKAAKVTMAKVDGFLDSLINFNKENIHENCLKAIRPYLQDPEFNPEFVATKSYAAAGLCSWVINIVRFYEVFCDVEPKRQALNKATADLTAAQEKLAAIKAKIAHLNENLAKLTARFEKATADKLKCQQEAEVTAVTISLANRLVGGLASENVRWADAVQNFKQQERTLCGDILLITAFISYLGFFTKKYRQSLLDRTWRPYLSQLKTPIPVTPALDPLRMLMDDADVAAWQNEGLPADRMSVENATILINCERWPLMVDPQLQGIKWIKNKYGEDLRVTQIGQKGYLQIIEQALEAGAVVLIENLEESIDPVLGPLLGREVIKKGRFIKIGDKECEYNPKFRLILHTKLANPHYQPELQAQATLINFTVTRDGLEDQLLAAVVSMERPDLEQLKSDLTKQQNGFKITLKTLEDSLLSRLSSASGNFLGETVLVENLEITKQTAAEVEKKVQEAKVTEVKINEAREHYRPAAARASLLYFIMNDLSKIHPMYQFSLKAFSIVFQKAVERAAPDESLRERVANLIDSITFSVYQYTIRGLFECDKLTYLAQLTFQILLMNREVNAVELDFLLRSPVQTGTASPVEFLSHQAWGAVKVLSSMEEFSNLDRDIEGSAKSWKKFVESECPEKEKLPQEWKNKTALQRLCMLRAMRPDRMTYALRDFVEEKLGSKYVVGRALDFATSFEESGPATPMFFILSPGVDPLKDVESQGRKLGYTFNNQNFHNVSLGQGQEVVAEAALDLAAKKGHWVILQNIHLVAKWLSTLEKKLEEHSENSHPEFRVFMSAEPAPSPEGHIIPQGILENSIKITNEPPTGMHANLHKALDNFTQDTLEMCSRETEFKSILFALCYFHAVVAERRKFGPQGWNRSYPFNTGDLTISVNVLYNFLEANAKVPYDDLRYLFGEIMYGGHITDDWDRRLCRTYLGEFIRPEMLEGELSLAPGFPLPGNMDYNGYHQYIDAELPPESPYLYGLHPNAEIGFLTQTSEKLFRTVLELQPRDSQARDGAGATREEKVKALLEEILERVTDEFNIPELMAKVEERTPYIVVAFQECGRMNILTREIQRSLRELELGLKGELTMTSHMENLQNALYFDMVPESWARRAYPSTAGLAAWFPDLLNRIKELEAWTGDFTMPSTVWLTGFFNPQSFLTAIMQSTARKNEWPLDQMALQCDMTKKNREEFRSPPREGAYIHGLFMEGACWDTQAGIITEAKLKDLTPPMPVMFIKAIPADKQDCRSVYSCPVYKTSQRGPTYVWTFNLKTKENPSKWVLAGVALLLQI

Columns and labels:
Assay in all cases: log2 fold change, soluble protein after heating vs DMSO (PISA); higher = thermal stabilisation; K562 lysate, 10 uM; active = over 0.2 and 3.5 SD of the protein, either way, in both replicates (recomputed)
vemurafenib = compound: CCCS(=O)(=O)Nc1ccc(F)c(C(=O)c2c[nH]c3ncc(-c4ccc(Cl)cc4)cc23)c1F [vemurafenib]
Method in brief: (§1)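 Soluble protein was defined as the supernatant remaining after 21,000xg for 90 min, following pooling of heated aliquots and adjustment to 0.5% NP-40 at 4°C. Before that, crude K562 extract at 1 mg/mL protein in PBS pH 7.4 with 1 mM MgCl2 was treated with 10 μM compound for 30 min and heated for 3 min across 48°C-58°C. Quantification used TMTpro 16plex LC-MS/MS with channel sums equalised, and values are log-two fold changes in thermal stability relative to solvent controls from duplicates.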

[1] = compound: CCCS(=O)(=O)Nc1ccc(F)c(C(=O)c2c[nH]c3ncc(Cl)cc23)c1F
Method in brief: as §1

barasertib = compound: CCN(CCCOc1ccc2c(Nc3cc(CC(=O)Nc4cccc(F)c4)[nH]n3)ncnc2c1)CCOP(=O)(O)O [barasertib]
Method in brief: as §1

[2] = compound: CC[C@@H]1C(=O)N(C)c2cnc(Nc3ccc(C(=O)NC4CCN(C)CC4)cc3OC)nc2N1C1CCCC1
Method in brief: as §1

volasertib = compound: CC[C@@H]1C(=O)N(C)c2cnc(Nc3ccc(C(=O)N[C@H]4CC[C@H](N5CCN(CC6CC6)CC5)CC4)cc3OC)nc2N1C(C)C [volasertib]
Method in brief: as §1

[3] = compound: CCn1c(C(=O)N(C2CC2)C2CC2)cc2c3c(ncn3C)c(Nc3cc(C)n(C)n3)nc21
Method in brief: as §1

[4] = compound: CCn1cc(-c2ccnc3[nH]c(-c4cccc(CN(C)C)c4)cc23)c(-c2ccc(NC(=O)N(C)C)cc2)n1
Method in brief: as §1

[5] = compound: CN1CCC(CNc2ccc3ncc(-c4cccc(OC(F)(F)F)c4)n3n2)CC1
Method in brief: as §1

saracatinib = compound: CN1CCN(CCOc2cc(OC3CCOCC3)c3c(Nc4c(Cl)ccc5c4OCO5)ncnc3c2)CC1 [saracatinib]
Method in brief: as §1

sotrastaurin = compound: CN1CCN(c2nc(C3=C(c4c[nH]c5ccccc45)C(=O)NC3=O)c3ccccc3n2)CC1 [sotrastaurin]
Method in brief: as §1

alvocidib = compound: CN1CC[C@H](c2c(O)cc(O)c3c(=O)cc(-c4ccccc4Cl)oc23)[C@H](O)C1 [alvocidib]
Method in brief: as §1

Tubastatin A = compound: CN1CCc2c(c3ccccc3n2Cc2ccc(C(=O)NO)cc2)C1 [Tubastatin A]
Method in brief: as §1

[6] = compound: CNC(=O)C1=CC=CC=C1NC2=NC(=NC=C2Cl)NC3=C(C=C(C=C3)N4CCOCC4)OC
Method in brief: as §1

defactinib = compound: CNC(=O)c1ccc(Nc2ncc(C(F)(F)F)c(NCc3nccnc3N(C)S(C)(=O)=O)n2)cc1 [defactinib]
Method in brief: as §1

[7] = compound: CNc1nc(-c2ccc3c(N)n[nH]c3c2)cc(N2C[C@@H](C(=O)NC3CCCCC3)CC[C@H]2C)n1
Method in brief: as §1

encorafenib = compound: COC(=O)N[C@@H](C)CNc1nccc(-c2cn(C(C)C)nc2-c2cc(Cl)cc(NS(C)(=O)=O)c2F)n1 [encorafenib]
Method in brief: as §1

[8] = compound: COC(=O)[C@H](CCSC)NC(=O)C1=C(C=C(C=C1)NC[C@H](CS)N)C2=CC=CC=C2
Method in brief: as §1

alisertib = compound: COc1cc(Nc2ncc3c(n2)-c2ccc(Cl)cc2C(c2c(F)cccc2OC)=NC3)ccc1C(=O)O [alisertib]
Method in brief: as §1

[9] = compound: COc1cc2nc(-c3cc(F)ccc3O)nc(N[C@@H]3CNC[C@H]3C(C)(C)O)c2cc1OC
Method in brief: as §1

gefitinib = compound: COc1cc2ncnc(Nc3ccc(F)c(Cl)c3)c2cc1OCCCN1CCOCC1 [gefitinib]
Method in brief: as §1

Measured: log2 fold change

DIAPH3 (UniProt Q9NSV4)
inactive: vemurafenib 0.041 | [1] 0.028 | barasertib 0.057 | [2] -0.023 | volasertib -0.099 | [3] 0.058 | [4] -0.098 | [5] -0.092 | saracatinib 0.053 | sotrastaurin 0.064 | alvocidib 0.041 | Tubastatin A -0.195 | [6] 0.004 | defactinib -0.024 | [7] -0.027 | encorafenib 0.118 | [8] 0.085 | alisertib 0.056 | [9] -0.015 | gefitinib 0.06

DIP2B (UniProt Q9P265)
inactive: vemurafenib 0.017 | [1] 0.001 | barasertib 0.006 | [2] -0.018 | volasertib 0.015 | [3] -0.04 | [4] -0.067 | [5] 0.015 | saracatinib -0.011 | sotrastaurin 0.014 | alvocidib -0.029 | Tubastatin A 0.016 | [6] 0.019 | defactinib -0.019 | [7] 0.006 | encorafenib 0 | [8] -0.006 | alisertib -0.017 | [9] -0.003 | gefitinib -0.028

DLG3 isoform 2 (UniProt Q92796)
inactive: vemurafenib 0.109 | [1] 0.005 | barasertib 0.047 | [2] -0.128 | volasertib -0.006 | [3] -0.057 | [4] -0.14 | [5] 0.038 | saracatinib 0.004 | sotrastaurin 0.043 | alvocidib -0.136 | Tubastatin A 0 | [6] -0.026 | defactinib 0.053 | [7] -0.01 | encorafenib -0.089 | [8] -0.082 | alisertib 0.069 | [9] -0.055 | gefitinib -0.131

DHX9 (UniProt Q08211)
inactive: vemurafenib -0.001 | [1] 0.022 | barasertib -0.006 | [2] 0.022 | volasertib -0.017 | [3] 0.035 | [4] 0.002 | [5] -0.03 | saracatinib 0.007 | sotrastaurin 0.006 | alvocidib 0.008 | Tubastatin A -0.067 | [6] 0.003 | defactinib 0.002 | [7] -0.003 | encorafenib 0.019 | [8] -0.019 | alisertib 0.001 | [9] 0.003 | gefitinib -0.017

DIAPH1 (UniProt O60610)
inactive: vemurafenib -0.002 | [1] -0.007 | barasertib 0.006 | [2] -0.001 | volasertib -0.002 | [3] 0.009 | [4] 0.091 | [5] -0.042 | saracatinib -0.006 | sotrastaurin -0.001 | alvocidib 0.03 | Tubastatin A 0 | [6] -0.003 | defactinib -0.018 | [7] -0.013 | encorafenib 0.003 | [8] 0.051 | alisertib 0.005 | [9] 0.006 | gefitinib -0.001

DOCK9 isoform 4 (UniProt Q9BZ29)
inactive: vemurafenib 0.023 | [1] 0.002 | barasertib -0.006 | [2] -0.021 | volasertib -0.012 | [3] -0.104 | [4] -0.047 | [5] -0.034 | saracatinib 0.032 | sotrastaurin 0.009 | alvocidib -0.025 | Tubastatin A -0.044 | [6] 0.039 | defactinib -0.008 | [7] -0.021 | encorafenib 0.011 | [8] -0.029 | alisertib -0.008 | [9] 0.03 | gefitinib -0.01

DLGAP4 (UniProt Q9Y2H0)
inactive: vemurafenib -0.051 | [1] -0.008 | barasertib -0.006 | [2] 0.007 | volasertib 0.031 | [3] 0.013 | [4] -0.004 | [5] 0.048 | saracatinib -0.018 | sotrastaurin 0 | alvocidib 0.003 | Tubastatin A 0.001 | [6] -0.011 | defactinib 0 | [7] -0.045 | encorafenib 0.03 | [8] -0.025 | alisertib -0.042 | [9] 0.02 | gefitinib 0.029

DHDDS isoform 2 (UniProt Q86SQ9)
inactive: vemurafenib -0.017 | [1] 0.046 | barasertib -0.046 | [2] -0.046 | volasertib 0.024 | [3] -0.001 | [4] -0.092 | [5] -0.016 | saracatinib -0.011 | sotrastaurin 0.009 | alvocidib 0.031 | Tubastatin A -0.037 | [6] -0.034 | defactinib 0 | [7] -0.006 | encorafenib -0.023 | [8] -0.018 | alisertib -0.07 | [9] 0.027 | gefitinib 0.015

DHFR (UniProt P00374)
inactive: vemurafenib -0.047 | barasertib 0.061 | [2] -0.035 | volasertib 0.013 | [3] 0.046 | [4] 0.072 | [5] -0.019 | saracatinib -0.008 | sotrastaurin 0.042 | alvocidib 0.03 | Tubastatin A -0.111 | [6] -0.001 | defactinib 0.039 | [7] -0.023 | encorafenib 0.01 | [8] 0.141 | alisertib 0.017 | [9] -0.192 | gefitinib 0.028
active: [1] 0.206

DNAJB1 (UniProt P25685)
inactive: vemurafenib -0.066 | [1] 0.002 | barasertib 0.03 | [2] 0.053 | volasertib -0.054 | [3] 0.059 | [4] -0.035 | [5] -0.05 | saracatinib 0.012 | sotrastaurin -0.024 | alvocidib 0.018 | Tubastatin A -0.075 | [6] 0.021 | defactinib 0.058 | [7] -0.037 | encorafenib 0.069 | [8] -0.103 | alisertib 0.022 | [9] -0.046 | gefitinib 0.006

DMTF1 (UniProt Q9Y222)
inactive: vemurafenib 0.12 | [1] 0.028 | barasertib -0.109 | [2] 0.135 | volasertib 0 | [3] -0.034 | [4] -0.084 | [5] 0.021 | saracatinib 0.028 | sotrastaurin -0.015 | alvocidib -0.028 | Tubastatin A 0.001 | [6] -0.006 | defactinib -0.092 | [7] -0.051 | encorafenib -0.031 | [8] 0.082 | alisertib -0.078 | [9] 0.049 | gefitinib -0.05

DNAJC13 (UniProt O75165)
inactive: vemurafenib 0.011 | [1] 0.005 | barasertib 0.052 | [2] 0.037 | volasertib -0.023 | [3] -0.014 | [4] -0.066 | [5] 0.067 | saracatinib -0.023 | sotrastaurin 0.025 | alvocidib -0.025 | Tubastatin A 0.082 | [6] 0.004 | defactinib 0.02 | [7] -0.014 | encorafenib 0 | [8] 0.03 | alisertib -0.017 | [9] 0.033 | gefitinib 0.003

2 records picked at random from those above:
DNAJC13 (UniProt O75165)
inactive: vemurafenib 0.011 | [1] 0.005 | barasertib 0.052 | [2] 0.037 | volasertib -0.023 | [3] -0.014 | [4] -0.066 | [5] 0.067 | saracatinib -0.023 | sotrastaurin 0.025 | alvocidib -0.025 | Tubastatin A 0.082 | [6] 0.004 | defactinib 0.02 | [7] -0.014 | encorafenib 0 | [8] 0.03 | alisertib -0.017 | [9] 0.033 | gefitinib 0.003

DIAPH3 (UniProt Q9NSV4)
inactive: vemurafenib 0.041 | [1] 0.028 | barasertib 0.057 | [2] -0.023 | volasertib -0.099 | [3] 0.058 | [4] -0.098 | [5] -0.092 | saracatinib 0.053 | sotrastaurin 0.064 | alvocidib 0.041 | Tubastatin A -0.195 | [6] 0.004 | defactinib -0.024 | [7] -0.027 | encorafenib 0.118 | [8] 0.085 | alisertib 0.056 | [9] -0.015 | gefitinib 0.06

The list goes on:

DNAH9 (UniProt Q9NYC9)
inactive: vemurafenib -0.021 | [1] -0.049 | barasertib -0.05 | [2] 0.048 | volasertib 0.043 | [3] -0.034 | [4] -0.043 | [5] 0.012 | saracatinib -0.07 | sotrastaurin 0.002 | alvocidib 0.026 | Tubastatin A 0.009 | [6] 0.037 | defactinib -0.116 | [7] 0.041 | encorafenib -0.003 | [8] -0.026 | alisertib 0.043 | [9] 0.018 | gefitinib 0.007

DHX8 (UniProt Q14562)
inactive: vemurafenib -0.103 | [1] 0.013 | barasertib 0.01 | [2] -0.047 | volasertib -0.022 | [3] 0.042 | [4] -0.024 | [5] 0.028 | saracatinib -0.004 | sotrastaurin 0.033 | alvocidib -0.051 | Tubastatin A 0 | [6] -0.059 | defactinib -0.016 | [7] -0.095 | encorafenib 0.047 | [8] -0.042 | alisertib 0.002 | [9] -0.006 | gefitinib 0.065

DHRS11 (UniProt Q6UWP2)
inactive: vemurafenib 0.015 | [1] 0.007 | barasertib 0 | [2] -0.019 | volasertib -0.026 | [3] 0.023 | [4] -0.03 | [5] 0.025 | saracatinib 0.013 | sotrastaurin 0.004 | alvocidib -0.001 | Tubastatin A -0.083 | [6] 0.055 | defactinib 0.021 | [7] 0.031 | encorafenib 0.024 | [8] 0.109 | alisertib -0.074 | [9] 0.031 | gefitinib -0.022

DHRS3 (UniProt O75911)
inactive: vemurafenib 0.082 | [1] 0.012 | barasertib -0.01 | [2] -0.03 | volasertib 0.033 | [3] -0.041 | [4] -0.061 | [5] 0.034 | saracatinib 0.029 | sotrastaurin 0.013 | alvocidib -0.013 | Tubastatin A 0.105 | [6] 0.043 | defactinib -0.006 | [7] 0.085 | encorafenib -0.044 | [8] 0.151 | alisertib -0.006 | [9] -0.011 | gefitinib 0.071
